# From the supplement of paper PMC8728848
# This is one part of the list.
# B1: PX14343G-pdi-535-24-535 (Parabacteroides distasonis) (protein)
# chain: LDTVPKDQLAPSTTWQTEADAKGFIVGCYKDLLDGNTLLYLDCGSDIGYNNFPWEGFRPWGDGSLSSSNPGQILYDYKSIRKANTFLENVDKVTFSSDAVKANYVAQAKAIRAYKYFLMNWWYGGVPIISSYSSADEAKVERNTEQEVRDYIAKDLDEALAGIAEAPEARGYIAKGAVLAIKMREALYYGDWQKAKDAAKAIIDLKQYELDPDYTNLFKVSGVDSKEIILADQNIETLDGLGTIGQMYNNVDQGWSSIVPTQNLVDMYEMSDGLTKEESKTYDAKHPFANRDPRMAMTILYPGRDWRGDVLNTLDEKLQDGTVNKNFPTYTDNASKSALTWAKYLDPMDQYGDVWSSGACPIVFRYAEVLLTYAEAANELSGPSDEIYGYLNQIRQRVGMGEVDKAKYGTKDKLRELIRRERTVELAGEGLRRADIVRWQEDGKMLAEKVMNGDLLRVTGTINYGESEPTKRAEITGTAVIETRQFSSRNRYLPIPQTSMDKNPNLKQNPGY
# Key:
# Assay in all cases: glycan array binding signal (z-score within array); higher = stronger binding
# Details in all cases: glycan notation: IUPAC condensed, linker removed
# Fuc(a1-2)Gal = biological target: Fuc(a1-2)Gal
# Summary of the method: (§1)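 Glycan array binding is given as a within-array Z-score, which can be read as non-binding when negative. The arrays, 3228 of them, came from the Consortium for Functional Glycomics database and were retained only where the protein sequence was available. Z-scores were averaged across arrays of the same protein sequence at different concentrations or buffers and across linkers.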
# Fuc(a1-2)Gal(b1-3)GalNAc = biological target: Fuc(a1-2)Gal(b1-3)GalNAc
# Summary of the method: as §1
# [1] = biological target: Fuc(a1-2)Gal(b1-3)GalNAc(a1-3)[Fuc(a1-2)]Gal(b1-4)Glc
# Summary of the method: as §1
# [2] = biological target: Fuc(a1-2)Gal(b1-3)GalNAc(a1-3)[Fuc(a1-2)]Gal(b1-4)GlcNAc
# Summary of the method: as §1
# [3] = biological target: Fuc(a1-2)Gal(b1-3)GalNAc(b1-3)Gal
# Summary of the method: as §1
# [4] = biological target: Fuc(a1-2)Gal(b1-3)GalNAc(b1-3)Gal(a1-4)Gal(b1-4)Glc
# Summary of the method: as §1
# [5] = biological target: Fuc(a1-2)Gal(b1-3)GalNAc(b1-4)[Neu5Ac(a2-3)]Gal(b1-4)Glc
# Summary of the method: as §1
# Fuc(a1-2)Gal(b1-3)GlcNAc = biological target: Fuc(a1-2)Gal(b1-3)GlcNAc
# Summary of the method: as §1
# [6] = biological target: Fuc(a1-2)Gal(b1-3)GlcNAc(b1-2)Man(a1-3)[Fuc(a1-2)Gal(b1-3)GlcNAc(b1-2)Man(a1-6)]Man(b1-4)GlcNAc(b1-4)GlcNAc
# Summary of the method: as §1
# [7] = biological target: Fuc(a1-2)Gal(b1-3)GlcNAc(b1-2)Man(a1-3)[Fuc(a1-2)Gal(b1-3)GlcNAc(b1-2)Man(a1-6)]Man(b1-4)GlcNAc(b1-4)[Fuc(a1-6)]GlcNAc
# Summary of the method: as §1
# [8] = biological target: Fuc(a1-2)Gal(b1-3)GlcNAc(b1-3)Gal(b1-4)Glc
# Summary of the method: as §1
# [9] = biological target: Fuc(a1-2)Gal(b1-3)GlcNAc(b1-3)GalNAc
# Summary of the method: as §1
# [10] = biological target: Fuc(a1-2)Gal(b1-3)GlcNAc(b1-3)[Fuc(a1-2)Gal(b1-3)GlcNAc(b1-6)]GalNAc
# Summary of the method: as §1
# [11] = biological target: Fuc(a1-2)Gal(b1-3)GlcNAc(b1-3)[Gal(b1-4)GlcNAc(b1-6)]Gal(b1-4)Glc
# Summary of the method: as §1
# [12] = biological target: Fuc(a1-2)Gal(b1-3)GlcNAc(b1-3)[Neu5Ac(a2-6)Gal(b1-4)GlcNAc(b1-6)]Gal(b1-4)Glc
# Summary of the method: as §1
# [13] = biological target: Fuc(a1-2)Gal(b1-3)GlcNAc6S
# Summary of the method: as §1
# [14] = biological target: Fuc(a1-2)Gal(b1-3)[Fuc(a1-4)]GlcNAc
# Summary of the method: as §1
# [15] = biological target: Fuc(a1-2)Gal(b1-3)[Fuc(a1-4)]GlcNAc(b1-2)Man(a1-3)[Fuc(a1-2)Gal(b1-3)[Fuc(a1-4)]GlcNAc(b1-2)Man(a1-3)]Man(b1-4)GlcNAc(b1-4)GlcNAc
# Summary of the method: as §1
# [16] = biological target: Fuc(a1-2)Gal(b1-3)[Fuc(a1-4)]GlcNAc(b1-2)Man(a1-3)[Fuc(a1-2)Gal(b1-3)[Fuc(a1-4)]GlcNAc(b1-2)Man(a1-6)]Man(b1-4)GlcNAc(b1-4)[Fuc(a1-6)]GlcNAc(b1-4)[Fuc(a1-6)]GlcNAc
# Summary of the method: as §1
# [17] = biological target: Fuc(a1-2)Gal(b1-3)[Fuc(a1-4)]GlcNAc(b1-3)[Fuc(a1-3)[Gal(b1-4)]GlcNAc(b1-6)]Gal(b1-4)Glc
# Summary of the method: as §1
# [18] = biological target: Fuc(a1-2)Gal(b1-3)[Fuc(a1-4)]GlcNAc(b1-3)[Gal(b1-4)GlcNAc(b1-6)]Gal(b1-4)Glc
# Summary of the method: as §1
# Fuc(a1-2)Gal(b1-4)Glc = biological target: Fuc(a1-2)Gal(b1-4)Glc
# Summary of the method: as §1
# Fuc(a1-2)Gal(b1-4)Glc6S = biological target: Fuc(a1-2)Gal(b1-4)Glc6S
# Summary of the method: as §1
# Fuc(a1-2)Gal(b1-4)GlcNAc = biological target: Fuc(a1-2)Gal(b1-4)GlcNAc
# Summary of the method: as §1
# [19] = biological target: Fuc(a1-2)Gal(b1-4)GlcNAc(b1-2)Man
# Summary of the method: as §1
# [20] = biological target: Fuc(a1-2)Gal(b1-4)GlcNAc(b1-2)Man(a1-3)[Fuc(a1-2)Gal(b1-4)GlcNAc(b1-2)Man(a1-6)]Man(b1-4)GlcNAc(b1-4)GlcNAc
# Summary of the method: as §1
# [21] = biological target: Fuc(a1-2)Gal(b1-4)GlcNAc(b1-2)Man(a1-3)[Fuc(a1-2)Gal(b1-4)GlcNAc(b1-2)Man(a1-6)]Man(b1-4)GlcNAc(b1-4)[Fuc(a1-6)]GlcNAc
# Summary of the method: as §1
# [22] = biological target: Fuc(a1-2)Gal(b1-4)GlcNAc(b1-2)[Fuc(a1-2)Gal(b1-4)GlcNAc(b1-4)]Man(a1-3)[Fuc(a1-2)Gal(b1-4)GlcNAc(b1-2)Man(a1-6)]Man(b1-4)GlcNAc(b1-4)GlcNAc
# Summary of the method: as §1
# [23] = biological target: Fuc(a1-2)Gal(b1-4)GlcNAc(b1-3)Gal(b1-4)GlcNAc
# Summary of the method: as §1
# [24] = biological target: Fuc(a1-2)Gal(b1-4)GlcNAc(b1-3)Gal(b1-4)GlcNAc(b1-2)Man(a1-3)[Fuc(a1-2)Gal(b1-4)GlcNAc(b1-3)Gal(b1-4)GlcNAc(b1-2)Man(a1-6)]Man(b1-4)GlcNAc(b1-4)GlcNAc
# Summary of the method: as §1
binder,measurement,setting,value
B1,glycan array binding signal (z-score),Fuc(a1-2)Gal,-0.305
same,glycan array binding signal (z-score),Fuc(a1-2)Gal(b1-3)GalNAc,-1.05
same,glycan array binding signal (z-score),[1],-0.144
same,glycan array binding signal (z-score),[2],-0.103
same,glycan array binding signal (z-score),[3],0.221
same,glycan array binding signal (z-score),[4],-0.074
same,glycan array binding signal (z-score),[5],-0.439
same,glycan array binding signal (z-score),Fuc(a1-2)Gal(b1-3)GlcNAc,-0.457
same,glycan array binding signal (z-score),[6],0.725
same,glycan array binding signal (z-score),[7],-0.691
same,glycan array binding signal (z-score),[8],-0.908
same,glycan array binding signal (z-score),[9],-0.429
same,glycan array binding signal (z-score),[10],-0.578
same,glycan array binding signal (z-score),[11],-1.03
same,glycan array binding signal (z-score),[12],-0.081
same,glycan array binding signal (z-score),[13],-0.083
same,glycan array binding signal (z-score),[14],-1.36
same,glycan array binding signal (z-score),[15],0.757
same,glycan array binding signal (z-score),[16],-0.302
same,glycan array binding signal (z-score),[17],-0.419
same,glycan array binding signal (z-score),[18],0.199
same,glycan array binding signal (z-score),Fuc(a1-2)Gal(b1-4)Glc,-0.597
same,glycan array binding signal (z-score),Fuc(a1-2)Gal(b1-4)Glc6S,0.228
same,glycan array binding signal (z-score),Fuc(a1-2)Gal(b1-4)GlcNAc,-0.042
same,glycan array binding signal (z-score),[19],1.37
same,glycan array binding signal (z-score),[20],0.68
same,glycan array binding signal (z-score),[21],1.06
same,glycan array binding signal (z-score),[22],0.359
same,glycan array binding signal (z-score),[23],-0.666
same,glycan array binding signal (z-score),[24],0.503

# A second format for some results above:
binder	measurement	setting	value
B1	glycan array binding signal (z-score)	[17]	-0.419
same	glycan array binding signal (z-score)	[18]	0.199
same	glycan array binding signal (z-score)	Fuc(a1-2)Gal(b1-4)Glc	-0.597
same	glycan array binding signal (z-score)	Fuc(a1-2)Gal(b1-4)Glc6S	0.228
same	glycan array binding signal (z-score)	Fuc(a1-2)Gal(b1-4)GlcNAc	-0.042
same	glycan array binding signal (z-score)	[19]	1.37
same	glycan array binding signal (z-score)	[20]	0.68
